Measurements from PubChem BioAssay (NCATS).
For some of these results: The hits were mostly taken out for another list; the other results follow. Records with an inconclusive call do not appear. This is a selection; strong and weak results do not stand in their true shares. Active and inactive are the calls of the source. The call rests on the fitted dose curve; in most records, active means well fitted inhibition curve with a large enough effect; inconclusive means small, poorly fitted or top-dose-only effect; inactive means flat fitted curve, though single readings scatter.

Assays:
Test in all cases: qHTS profiling for inhibitors of Plasmodium falciparum proliferation (AID 504749); further: nearly all actives have a fitted effect of over 60% in size;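 on activity, negative = inhibition: 0% = DMSO vehicle and full inhibition = artemisinin control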
[1] = test system: CP217; conditions: P. falciparum in erythrocytes, SYBR Green DNA, 72 h
Method in brief: (§1)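 Infected RBCs, 0.3% parasitemia/2.5% Hct final; cpd 72 h, 37 C, 5% CO2; lysis buffer with saponin/triton/SYBR Green I, o/n RT dark; FI 485/535; norm. to artemisinin (0.29 uM) and DMSO.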

[2] = test system: CP237; conditions: P. falciparum in erythrocytes, SYBR Green DNA, 72 h
Method in brief: as §1

[3] = test system: CP238; conditions: P. falciparum in erythrocytes, SYBR Green DNA, 72 h
Method in brief: as §1

[4] = test system: CP247; conditions: P. falciparum in erythrocytes, SYBR Green DNA, 72 h
Method in brief: as §1

[5] = test system: CP250; conditions: P. falciparum in erythrocytes, SYBR Green DNA, 72 h
Method in brief: as §1

[6] = test system: CP252; conditions: P. falciparum in erythrocytes, SYBR Green DNA, 72 h
Method in brief: as §1

[7] = test system: CP256; conditions: P. falciparum in erythrocytes, SYBR Green DNA, 72 h
Method in brief: as §1

[8] = test system: CP260; conditions: P. falciparum in erythrocytes, SYBR Green DNA, 72 h
Method in brief: as §1

[9] = test system: CP262; conditions: P. falciparum in erythrocytes, SYBR Green DNA, 72 h; at 28.7 µM (top of the series)
Method in brief: as §1

[10] = test system: CP265; conditions: P. falciparum in erythrocytes, SYBR Green DNA, 72 h
Method in brief: as §1

[11] = test system: CP266; conditions: P. falciparum in erythrocytes, SYBR Green DNA, 72 h
Method in brief: as §1

[12] = test system: CP268; conditions: P. falciparum in erythrocytes, SYBR Green DNA, 72 h
Method in brief: as §1

[13] = test system: CP269; conditions: P. falciparum in erythrocytes, SYBR Green DNA, 72 h
Method in brief: as §1

[14] = test system: CP286; conditions: P. falciparum in erythrocytes, SYBR Green DNA, 72 h
Method in brief: as §1

[15] = test system: CP291; conditions: P. falciparum in erythrocytes, SYBR Green DNA, 72 h
Method in brief: as §1

[16] = test system: CP297; conditions: P. falciparum in erythrocytes, SYBR Green DNA, 72 h
Method in brief: as §1

[17] = test system: CP305; conditions: P. falciparum in erythrocytes, SYBR Green DNA, 72 h
Method in brief: as §1

[18] = test system: CP315; conditions: P. falciparum in erythrocytes, SYBR Green DNA, 72 h
Method in brief: as §1

[19] = test system: CP325; conditions: P. falciparum in erythrocytes, SYBR Green DNA, 72 h
Method in brief: as §1

[20] = test system: CP329; conditions: P. falciparum in erythrocytes, SYBR Green DNA, 72 h
Method in brief: as §1

[21] = test system: DFO2036; conditions: P. falciparum in erythrocytes, SYBR Green DNA, 72 h
Method in brief: as §1

[22] = test system: DIV14; conditions: P. falciparum in erythrocytes, SYBR Green DNA, 72 h
Method in brief: as §1

[23] = test system: DIV17; conditions: P. falciparum in erythrocytes, SYBR Green DNA, 72 h
Method in brief: as §1

[24] = test system: DIV30; conditions: P. falciparum in erythrocytes, SYBR Green DNA, 72 h
Method in brief: as §1

[25] = test system: Dd2; conditions: P. falciparum in erythrocytes, SYBR Green DNA, 72 h
Method in brief: as §1

[26] = test system: ECU; conditions: P. falciparum in erythrocytes, SYBR Green DNA, 72 h
Method in brief: as §1

[27] = test system: FAB9; conditions: P. falciparum in erythrocytes, SYBR Green DNA, 72 h
Method in brief: as §1

[28] = test system: GB4; conditions: P. falciparum in erythrocytes, SYBR Green DNA, 72 h
Method in brief: as §1

[29] = test system: HB3; conditions: P. falciparum in erythrocytes, SYBR Green DNA, 72 h
Method in brief: as §1

[30] = test system: ICS; conditions: P. falciparum in erythrocytes, SYBR Green DNA, 72 h
Method in brief: as §1

[31] = test system: JCK; conditions: P. falciparum in erythrocytes, SYBR Green DNA, 72 h
Method in brief: as §1

[32] = test system: N140; conditions: P. falciparum in erythrocytes, SYBR Green DNA, 72 h
Method in brief: as §1

[33] = test system: P93_24; conditions: P. falciparum in erythrocytes, SYBR Green DNA, 72 h
Method in brief: as §1

[34] = test system: P94_40; conditions: P. falciparum in erythrocytes, SYBR Green DNA, 72 h
Method in brief: as §1

[35] = test system: PAD; conditions: P. falciparum in erythrocytes, SYBR Green DNA, 72 h
Method in brief: as §1

[36] = test system: PC15; conditions: P. falciparum in erythrocytes, SYBR Green DNA, 72 h
Method in brief: as §1

[37] = test system: PC26; conditions: P. falciparum in erythrocytes, SYBR Green DNA, 72 h
Method in brief: as §1

[38] = test system: PC49; conditions: P. falciparum in erythrocytes, SYBR Green DNA, 72 h
Method in brief: as §1

[39] = test system: SC27B; conditions: P. falciparum in erythrocytes, SYBR Green DNA, 72 h
Method in brief: as §1

[40] = test system: TAB109; conditions: P. falciparum in erythrocytes, SYBR Green DNA, 72 h
Method in brief: as §1

[41] = test system: TAB113; conditions: P. falciparum in erythrocytes, SYBR Green DNA, 72 h
Method in brief: as §1

[42] = test system: TAB165; conditions: P. falciparum in erythrocytes, SYBR Green DNA, 72 h
Method in brief: as §1

[43] = test system: W2; conditions: P. falciparum in erythrocytes, SYBR Green DNA, 72 h
Method in brief: as §1
Potency means the concentration at half of the fitted maximal effect.

In the case of O=C(CCCCCCC(=O)Nc1ccccc1)NO, the Potency [1] is reported as active: 2820 nM, the Potency [2] is reported as active: 355 nM and the Potency [3] is reported as active: 794 nM. The Potency [4] was active: 141 nM, the Potency [5] was active: 708 nM and the Potency [6] was active: 562 nM. The Potency [7] was active: 562 nM, the Potency [8] was active: 501 nM and the activity, negative = inhibition [9] was inactive: -25%. For the same compound, the Potency [10] was active: 891 nM, the Potency [11] was active: 1200 nM and the Potency [12] was active: 1350 nM. For the same compound, the Potency [13] was active: 757 nM, the Potency [14] was active: 1000 nM and the Potency [15] was active: 953 nM. For the same compound, the Potency [16] was active: 849 nM, the Potency [17] was active: 1200 nM and the Potency [18] was active: 953 nM. The Potency [19] was active: 1200 nM, the Potency [20] was active: 849 nM and the Potency [21] was active: 708 nM. For the same compound, the Potency [22] was active: 478 nM, the Potency [23] was active: 478 nM and the Potency [24] was active: 1070 nM. The Potency [25] was active: 224 nM, the Potency [26] was active: 794 nM and the Potency [27] was active: 1410 nM. For the same compound, the Potency [28] was active: 757 nM, the Potency [29] was active: 708 nM and the Potency [30] was active: 447 nM. For the same compound, the Potency [31] was active: 3550 nM, the Potency [32] was active: 562 nM and the Potency [33] was active: 631 nM. For the same compound, the Potency [34] was active: 631 nM, the Potency [35] was active: 708 nM and the Potency [36] was active: 1410 nM. The Potency [37] was active: 757 nM, the Potency [38] was active: 1000 nM and the Potency [39] was active: 631 nM. For the same compound, the Potency [40] was active: 447 nM, the Potency [41] was active: 891 nM and the Potency [42] was active: 501 nM. The Potency [43] was active: 338 nM.
